In patent US20170275380A1 (ROCHE DIAGNOSTICS OPERATIONS, published 2017):
Results are given in words; binding and its absence hold for the method and conditions named. Some results given as binding are weak or reduced against the parent protein; the word gives no strength.

Molecular target: T1, human HER3(1242-1267)-Bi-PEG-amide (human, Bi-PEG (biotin-PEG); C-terminal amide)
T1 construct: Injected as analyte singly grafted on streptavidin; also called HER3 peptide
T1 peptide: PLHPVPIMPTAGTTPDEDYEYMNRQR
Assay: SPR (BIACORE A100), mAb captured by anti-mouse Fc, peptide grafted on streptavidin as analyte

- binding: binds
B1: antibody 7.2.32 (antibody, V domains shown)
VH: EVQLQESGGGLVQPKGSLQLSCAASGFTFNTYAMHWVRQAPGKGLEWVARIRTESSDYATDYADSVKDRFIISRDDSQNMLYLQMNNLKSEDTAIYYCVRSSGFDYWGQGTTLTVSS
VL: DIQMTQSPSLPVSLGDQASISCRSSQSLVHDNGNTYLHWFLQKPGQSPKLLIYKVSNRFSGVPDRFGGSGSGTDFTLKISGVEAEDLGVYFCSQGTHVPTFGGGTKLEIK
notes: Mouse monoclonal antibody, tested from hybridoma supernatant captured by anti-mouse IgG Fc; also called selected antibody directed against HER3
